Experimental data reported in publication PMC3517414, “Complex Interplay between the Lipin 1 and the Hepatocyte Nuclear Factor 4 α (HNF4α) Pathways to Regulate Liver Lipid Metabolism” (PLoS ONE, 2012).
These are yes or no findings as the source states them, for the method shown. Binding seen in cells or lysates may run through a third protein. Some results given as binding are weak or reduced against the parent protein; the word gives no strength. Sequences can lack the tags named with a protein.

Target: T1, hepatocyte nuclear factor 4α (HNF4α) (human (endogenous in HepG2)) (UniProt P41235)
T1 sequence: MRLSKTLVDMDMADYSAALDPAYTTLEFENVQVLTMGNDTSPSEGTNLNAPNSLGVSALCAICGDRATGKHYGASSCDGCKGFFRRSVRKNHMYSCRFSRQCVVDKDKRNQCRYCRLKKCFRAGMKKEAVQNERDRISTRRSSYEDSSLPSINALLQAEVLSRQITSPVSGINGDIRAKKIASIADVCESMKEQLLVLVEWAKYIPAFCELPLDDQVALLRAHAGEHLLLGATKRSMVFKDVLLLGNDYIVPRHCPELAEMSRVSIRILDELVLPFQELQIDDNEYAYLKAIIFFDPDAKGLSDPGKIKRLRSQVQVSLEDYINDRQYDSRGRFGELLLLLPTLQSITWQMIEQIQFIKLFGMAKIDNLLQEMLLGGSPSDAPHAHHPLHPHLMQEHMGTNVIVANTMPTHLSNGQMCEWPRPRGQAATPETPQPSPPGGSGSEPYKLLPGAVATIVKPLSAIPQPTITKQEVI
Test: co-IP; HNF4α immunoprecipitated with anti-HNF4α antibody (or IgG control) and protein A agarose from lysates of HepG2 cells infected with adenovirus for HA-lipin 1β or lipin 1(LXXFF); NP40 lysis buffer (20 mM Tris HCl, 100 mM NaCl, 0.5% NP40, 0.5 mM EDTA); blot with anti-HA

binding: binds
B1: lipin 1β (924 amino acid form of mouse lipin 1), HA-tagged (natural protein, UniProt Q91ZP3 1-924, looked up)
chain: MNYVGQLAGQVFVTVKELYKGLNPATLSGCIDIIVIRQPNGSLQCSPFHVRFGKMGVLRSREKVVDIEINGESVDLHMKLGDNGEAFFVQETDNDQEIIPMYLATSPILSEGAARMESQLKRNSVDRIRCLDPTTAAQGLPPSDTPSTGSLGKKRRKRRRKAQLDNLKRDDNVNSSEDEDMFPIEMSSDEDTAPMDGSRTLPNDVPPFQDDIPKENFPSISTHPQSASYPSSDREWSPSPSSLVDCQRTPPHLAEGVLSSSCPLQSCHFHASESPSGSRPSTPKSDSELVSKSADRLTPKNNLEMLWLWGELPQAAKSSSPHKMKESSPLGSRKTPDKMNFQAIHSESSDTFSDQSPTMARGLLIHQSKAQTEMQFVNEEDLESLGAAAPPSPVAEELKAPYPNTAQSSSKTDSPSRKKDKRSRHLGADGVYLDDLTDMDPEVAALYFPKNGDPGGLPKQASDNGARSANQSPQSVGGSGIDSGVESTSDSLRDLPSIAISLCGGLSDHREITKDAFLEQAVSYQQFADNPAIIDDPNLVVKVGNKYYNWTTAAPLLLAMQAFQKPLPKATVESIMRDKMPKKGGRWWFSWRGRNATIKEESKPEQCLTGKGHNTGEQPAQLGLATRIKHESSSSDEEHAAAKPSGSSHLSLLSNVSYKKTLRLTSEQLKSLKLKNGPNDVVFSVTTQYQGTCRCEGTIYLWNWDDKVIISDIDGTITRSDTLGHILPTLGKDWTHQGIAKLYHKVSQNGYKFLYCSARAIGMADMTRGYLHWVNERGTVLPQGPLLLSPSSLFSALHREVIEKKPEKFKVQCLTDIKNLFFPNTEPFYAAFGNRPADVYSYKQVGVSLNRIFTVNPKGELVQEHAKTNISSYVRLCEVVDHVFPLLKRSHSCDFPCSDTFSNFTFWREPLPPFENQDMHSASA
